Reference: the supplement of paper PMC4604168 (melanoma cell lines)
This is one part of the list. Many values rest on one well or one pass, so single values are uncertain.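 Cells were imaged in 1,536-well plates, and nuclei stained with an antibody against cleaved PARP were counted against all DNA-stained nuclei to give the apoptosis fraction. Screening doses were chosen to leave most cells alive, and resting and induced cleaved-PARP levels differ strongly between cell lines.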

Experiments:
Assay in all cases: cleaved PARP positive nuclei fraction relative to DMSO control; melanoma cells; higher = more apoptosis
Settings in all cases: library dose: low library concentration; 72 h
501Mel = tested on: 501Mel
A101D = tested on: A101D
A2058 = tested on: A2058
A375 = tested on: A375
C32 = tested on: C32
CBRC013 = tested on: CBRC013 (line from a melanoma biopsy)
CBRC014 = tested on: CBRC014 (line from a melanoma biopsy)
CBRC016 = tested on: CBRC016 (line from a melanoma biopsy)
CBRC017 = tested on: CBRC017 (line from a melanoma biopsy)
CBRC034 = tested on: CBRC034 (line from a melanoma biopsy)
COLO792 = tested on: COLO792
COLO800 = tested on: COLO800
COLO829 = tested on: COLO829
G361 = tested on: G361
IPC-298 = tested on: IPC-298
IST-MEL1 = tested on: IST-MEL1
LB2518-MEL = tested on: LB2518-MEL
LOXIMVI = tested on: LOXIMVI

Compound	cleaved PARP positive nuclei fraction (501Mel)	cleaved PARP positive nuclei fraction (A101D)	cleaved PARP positive nuclei fraction (A2058)	cleaved PARP positive nuclei fraction (A375)	cleaved PARP positive nuclei fraction (C32)	cleaved PARP positive nuclei fraction (CBRC013)	cleaved PARP positive nuclei fraction (CBRC014)	cleaved PARP positive nuclei fraction (CBRC016)	cleaved PARP positive nuclei fraction (CBRC017)	cleaved PARP positive nuclei fraction (CBRC034)	cleaved PARP positive nuclei fraction (COLO792)	cleaved PARP positive nuclei fraction (COLO800)	cleaved PARP positive nuclei fraction (COLO829)	cleaved PARP positive nuclei fraction (G361)	cleaved PARP positive nuclei fraction (IPC-298)	cleaved PARP positive nuclei fraction (IST-MEL1)	cleaved PARP positive nuclei fraction (LB2518-MEL)	cleaved PARP positive nuclei fraction (LOXIMVI)
C[C@@H]1CCN(C(=O)CC#N)C[C@@H]1N(C)c1ncnc2[nH]ccc12 + O=C(Nc1ccccc1)c1cc([N+](=O)[O-])ccc1Cl [GW9662] (first compound 1 µM, partner dose 2 µM)	122%	47.9%	27%	109%	78.4%	46%	88.6%	30%	71%	24%	145%	142%	218%	105%	56%	57.7%	82.7%	52.7%
CO[C@@H]1[C@H](N(C)C(=O)c2ccccc2)C[C@H]2O[C@]1(C)n1c3ccccc3c3c4c(c5c6ccccc6n2c5c31)C(=O)NC4 [Midostaurin] + Oc1cc(-c2nc(-c3ccccc3)[nH]c2-c2ccncc2)ccc1Cl [L779450] (first compound 0.08 µM, partner dose 0.2 µM)	113%	284%	65.4%	130%	145%	53.9%	103%	25.2%	101%	89.9%	119%	83.1%	87.2%	57%	105%	72.3%	119%	41%
Cc1ccc(NC(=O)c2cccc(N(C)C)c2)cc1NC(=O)c1ccc(O)cc1 + COc1cc2ncnc(Nc3ccc(Oc4ccccc4)cc3)c2cc1OC [SrcI1] (first compound 2 µM, partner dose 2 µM)	41.6%	257%	40.8%	69.9%	178%	191%	108%	83.8%	121%	101%	139%	120%	126%	72.5%	99.3%	456%	260%	53%
C[C@@H]1CCN(C(=O)CC#N)C[C@@H]1N(C)c1ncnc2[nH]ccc12 + N#Cc1c(O)c2c(-c3ccc(-c4ccccc4O)cc3)csc2[nH]c1=O [A769662] (first compound 1 µM, partner dose 2 µM)	80.9%	152%	54.2%	49.6%	55.4%	148%	101%	55.1%	79.3%	89.6%	43.6%	158%	90.2%	125%	40.5%	106%	77.8%	13.6%
Nc1cccc2c1CN(C1CCC(=O)NC1=O)C2=O (stereo not given) [lenalidomide] + O=C(O)C(=O)Nc1sc2c(c1C(=O)O)CCNC2 [TCS401] (first compound 1 µM, partner dose 1.66667 µM)	304%	55.5%	68.6%	48.4%	92.7%	103%	80.3%	34.1%	69.1%	513%	109%	106%	138%	38%	79.5%	44%	78.3%	65.4%
Cc1nc(Nc2ncc(C(=O)Nc3c(C)cccc3Cl)s2)cc(N2CCN(CCO)CC2)n1 [dasatanib] + O=C1NC(=O)/C(=C/c2ccc(-c3ccc(F)cc3O)o2)S1 [AS252424] (first compound 0.004 µM, partner dose 1 µM)	95.1%	152%	317%	115%	302%	126%	110%	61.3%	82.9%	60.6%	87.1%	117%	128%	146%	43.6%	89.8%	200%	96.2%
O=C(CCCCCCC(=O)Nc1ccccc1)NO [vorinostat] + COc1ccc2c(c1)CCC1C2CCC2(C)C(NCCCCCCN3C(=O)C=CC3=O)CCC12 [U73122] (first compound 0.08 µM, partner dose 0.4 µM)	77.1%	128%	63.3%	25.4%	124%	68.3%	106%	128%	97.7%	173%	57.4%	113%	133%	150%	162%	136%	81.8%	84%
Cc1ccc(NC(=O)c2cccc(N(C)C)c2)cc1NC(=O)c1ccc(O)cc1 + COc1cc(N2CCC(N3CCN(C)CC3)CC2)ccc1Nc1ncc(Cl)c(Nc2ccccc2S(=O)(=O)C(C)C)n1 [NVP-TAE684] (first compound 2 µM, partner dose 0.08 µM)	88%	72.3%	117%	687%	32.5%	72.7%	99.2%	58.6%	114%	48.2%	69.9%	113%	89.5%	47.7%	44.5%	129%	165%	1590%
Cn1c(Nc2ccc(C(F)(F)F)cc2)nc2cc(Oc3ccnc(-c4ncc(C(F)(F)F)[nH]4)c3)ccc21 + CC(C)CCN1c2nc(Nc3cc(F)c(O)c(F)c3)ncc2N(C)C(=O)C1C [BID1870] (first compound 0.08 µM, partner dose 0.2 µM)	145%	373%	107%	566%	49.9%	93.1%	99.1%	51.8%	127%	121%	396%	184%	88.3%	195%	299%	136%	305%	137%
O=C(Nc1cccc(Cl)c1)Nc1ncc(CCNc2ncnc3ccsc23)s1 + CCCCCCCCCCCC1=C(O)C(=O)C=C(O)C1=O [Embelin] (first compound 0.0008 µM, partner dose 1.2 µM)	52.9%	246%	55.5%	157%	50.9%	84.5%	95%	116%	69.3%	89.8%	171%	120%	96.2%	174%	109%	30.9%	148%	87.3%

Record cards, from the list above. Values in the order: cleaved PARP positive nuclei fraction (501Mel) | cleaved PARP positive nuclei fraction (A101D) | cleaved PARP positive nuclei fraction (A2058) | cleaved PARP positive nuclei fraction (A375) | cleaved PARP positive nuclei fraction (C32) | cleaved PARP positive nuclei fraction (CBRC013) | cleaved PARP positive nuclei fraction (CBRC014) | cleaved PARP positive nuclei fraction (CBRC016) | cleaved PARP positive nuclei fraction (CBRC017) | cleaved PARP positive nuclei fraction (CBRC034) | cleaved PARP positive nuclei fraction (COLO792) | cleaved PARP positive nuclei fraction (COLO800) | cleaved PARP positive nuclei fraction (COLO829) | cleaved PARP positive nuclei fraction (G361) | cleaved PARP positive nuclei fraction (IPC-298) | cleaved PARP positive nuclei fraction (IST-MEL1) | cleaved PARP positive nuclei fraction (LB2518-MEL) | cleaved PARP positive nuclei fraction (LOXIMVI)
CO[C@@H]1[C@H](N(C)C(=O)c2ccccc2)C[C@H]2O[C@]1(C)n1c3ccccc3c3c4c(c5c6ccccc6n2c5c31)C(=O)NC4 [Midostaurin] + Oc1cc(-c2nc(-c3ccccc3)[nH]c2-c2ccncc2)ccc1Cl [L779450] (first compound 0.08 µM, partner dose 0.2 µM) reads 113% | 284% | 65.4% | 130% | 145% | 53.9% | 103% | 25.2% | 101% | 89.9% | 119% | 83.1% | 87.2% | 57% | 105% | 72.3% | 119% | 41%
Cn1c(Nc2ccc(C(F)(F)F)cc2)nc2cc(Oc3ccnc(-c4ncc(C(F)(F)F)[nH]4)c3)ccc21 + CC(C)CCN1c2nc(Nc3cc(F)c(O)c(F)c3)ncc2N(C)C(=O)C1C [BID1870] (first compound 0.08 µM, partner dose 0.2 µM) reads 145% | 373% | 107% | 566% | 49.9% | 93.1% | 99.1% | 51.8% | 127% | 121% | 396% | 184% | 88.3% | 195% | 299% | 136% | 305% | 137%
